# Reference: PubChem BioAssay AID1347075 (National Center for Advancing Translational Sciences (NCATS), 2019)
# Screen size: about 400,000 compounds; about 5,500 (1.4%) were called active. The shares of active, inactive and inconclusive entries below differ from those in the screen. The call rests on the fitted dose curve; in most records, active means well fitted cell-killing curve with a large enough effect; inconclusive means small, poorly fitted or top-dose-only effect, or effect the other way; inactive means flat fitted curve, though single readings scatter. Potencies beside an inconclusive call are fits to weak or partial responses and may not hold up.
# Assay: qHTS assay for MDR1-selective chemotherapeutics: Primary screen using the parental adenocarcinoma cell KB-3-1; further: nearly all actives have a fitted effect of over 60% in size
# Settings: KB-3-1 viability, CellTiter-Glo ATP luminescence, 72 h; activity change, negative = cytotoxic: at 46.1 µM (top of the series)
# In short: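 Using CellTiter-Glo luminescence, growth of non-resistant KB-3-1 adenocarcinoma cells is assessed 72 h after pin-tool compound addition at 37 °C. Normalized responses across the concentration series yield fitted curves.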
# On the % scale 0 is the no-effect control and ±100 the full control effect; potency means the concentration at half of the fitted maximal effect.
SMILES,"activity change, negative = cytotoxic",Potency
COC(=O)c1ccc(NC(=O)COc2coc(CN3CCc4ccccc43)cc2=O)cc1,inactive: -4.24%,
COc1ccccc1CNC(=O)COc1ccc(S(=O)(=O)N2CCOCC2)cc1C,,"inconclusive: 2.91 µM [rising, partial curve, poor fit]"
O=C(CN(C(=O)CCC(=O)Nc1ccccn1)c1ccc(F)cc1)NCc1ccco1,,"inconclusive: 29.1 µM [rising, single point]"
CC(C)C[C@H]1CNC(=O)C(=O)N1C[C@@H]1CCCN1C[C@H](CC(C)C)N1C[C@H](Cc2ccccc2)N(CCc2ccccc2)C(=O)C1=O,,"inconclusive: 29.1 µM [cytotoxic, single point]"
COc1ccc(S(=O)(=O)n2nc(-n3c(C)ccc3C)c3c(F)cccc32)cc1OC,,"inconclusive: 29.1 µM [cytotoxic, single point]"
CC(=O)OCc1cnc(C)c2oc(=O)c(C(=O)Nc3cccc(F)c3)cc12,inactive: 11%,
Cc1ccc(-n2ncc3c(NCCCc4ccccc4)ncnc32)cc1,inactive: 7.31%,
O=C(O)CN1C(=O)/C(=C\c2cccc(OCc3ccccc3F)c2)SC1=S,inactive: 0.884%,
Cc1ccc(S(=O)(=O)Nc2ccc3c(c2)n(C)c(=O)n3C)cc1,,"inconclusive: 29.1 µM [cytotoxic, single point]"
COc1ccc(CNC(=O)COc2cccnc2[N+](=O)[O-])cc1,,"inconclusive: 8.2 µM [rising, partial curve]"
CCC[C@@H]1C[C@@]1(CCC)[C@@H](NC(=O)c1ccccc1)c1ccc(C(=O)OC)cc1,,"inconclusive: 29.1 µM [cytotoxic, single point]"
COc1cc2c(cc1O)C(SC)=NC(C)(C)C2,,"inconclusive: 18.4 µM [cytotoxic, single point]"
CCOC(=O)[C@]12Cc3c(cc(OC)c(OC)c3OC)[C@H]1N(CCC(=O)OC)C(=O)c1cc(OC)ccc12,,"inconclusive: 20.6 µM [cytotoxic, single point]"
CCc1ccc(NC(=O)c2cc(S(=O)(=O)N3CCCCCC3)ccc2F)cc1,inactive: -12%,
COc1ccc(S(=O)(=O)Cc2ccc(C(=O)NCc3cccnc3)o2)cc1,,"inconclusive: 13 µM [cytotoxic, single point]"
COC(=O)c1ccc(C(=O)OC)c(=O)[nH]1,inactive: -0.976%,
CN(C)c1ccc(N=C/C=C2\N(C)c3ccccc3C2(C)C)cc1,,"inconclusive: 20.6 µM [cytotoxic, partial curve, poor fit]"
S=C(Nc1ccc(Cl)c(Cl)c1)NC1CCCCC1,,active: 18.4 µM
CCCCN1CC(c2nc3ccccc3n2CCCCOc2ccc(C)cc2C)CC1=O (centres undefined),,"inconclusive: 25.9 µM [cytotoxic, single point]"
CC(C)NC(=O)C1CC(=O)N(C(C)c2ccccc2)C1 (centres undefined),,"inconclusive: 18.4 µM [cytotoxic, single point]"
COc1ccccc1C(=O)NC(=O)COC(=O)c1ccc(C)o1,,"inconclusive: 20.6 µM [rising, partial curve, poor fit]"
COc1cc(C(C(=O)NCc2ccccc2)N(C(=O)c2snc(C(N)=O)c2N)C2CCCC2)cc(OC)c1OC (centres undefined),,"inconclusive: 9.2 µM [rising, partial curve, poor fit]"

SMILES,"activity change, negative = cytotoxic",Potency
Cc1ccc(S(=O)(=O)N2CCCCC2)cc1C(=O)NCCc1ccccc1,inactive: 1.17%,
O=C(COc1ccccc1F)NCC(c1ccc(F)cc1)N1CCOCC1 (centres undefined),,"inconclusive: 25.9 µM [rising, partial curve, poor fit]"
CC(=O)c1cccc(NC(=O)C(C)OC(=O)/C=C/c2cccs2)c1 (centres undefined),,"inconclusive: 25.9 µM [cytotoxic, single point]"
Cc1ccsc1/C=N\NC(=O)c1n[nH]c2c1CCC2,,active: 3.26 µM
COc1cccc(NC(=O)Nc2nnc(Cc3ccccc3F)s2)c1,inactive: -17.2%,
CC(=O)c1ccc(Nc2nc(-c3sc(C)nc3C)cs2)cc1,,"inconclusive: 1.64 µM [cytotoxic, partial curve, poor fit]"
CC1Cc2ccccc2N1C(=O)COC(=O)Cn1nnc(-c2ccccc2)n1 (centres undefined),,"inconclusive: 29.1 µM [rising, partial curve, poor fit]"
Cc1nc(-c2cccc(NC(=O)Cc3ccccc3)c2)cs1,inactive: -25.4%,
Cc1ccc(S(=O)(=O)Cc2ccc(C(=O)N3CCN(c4ccc(F)cc4)CC3)o2)cc1,,"inconclusive: 18.4 µM [cytotoxic, single point]"
CCOC(=O)c1cc([N+](=O)[O-])sc1NC(=O)c1ccc(S(=O)(=O)N2CC3(C)CC2CC(C)(C)C3)cc1 (centres undefined),,active: 4.61 µM
O=S(=O)(c1ccccc1)N(Cc1ccccc1)c1ccccn1,,"inconclusive: 29.1 µM [cytotoxic, single point]"
COc1cccc(NC(=O)/C(C#N)=C\c2cn(Cc3ccc(C)cc3)c3ccccc23)c1,,"inconclusive: 20.6 µM [cytotoxic, single point]"
COc1ccccc1CNc1ccc(-c2nc(C)no2)cc1[N+](=O)[O-],,"inconclusive: 18.4 µM [cytotoxic, single point]"
COC(=O)c1c(-c2ccc(S(C)(=O)=O)cc2)sc2cc(OC)ccc12,inactive: -5.25%,
CCOC(=O)c1ccc2nc(C)c(C)nc2c1,,"inconclusive: 2.91 µM [cytotoxic, partial curve, poor fit]"
Cc1cc2nc(N=C(N)N)nc(C)c2cc1C,inactive: -0.157%,
O=C(Nc1nnc(-c2ccccc2)o1)c1cc(Cl)sc1Cl,,"inconclusive: 20.6 µM [cytotoxic, single point]"
N#Cc1c(N2CCOCC2)nsc1-c1ccc(C(F)(F)F)cc1,inactive: -1.24%,
O=C(O)c1ccccc1NC(c1ccccc1)c1ccc2cccnc2c1O (centres undefined),,"inconclusive: 4.11 µM [cytotoxic, full curve, poor fit]"
COc1ccccc1Nc1nc(-c2sc(NC(=O)c3ccco3)nc2C)cs1,,"inconclusive: 29.1 µM [cytotoxic, single point]"
CC(C)NC(=O)C1(C)CCN1Cc1ccc(C(F)(F)F)cc1 (centres undefined),inactive: 4.84%,
Cc1ccc(C(=O)Nc2ncc([N+](=O)[O-])s2)cc1,,"inconclusive: 20.6 µM [cytotoxic, single point]"

# Reprinted from the results shown (two entries):
SMILES,"activity change, negative = cytotoxic",Potency
CC(=O)c1ccc(Nc2nc(-c3sc(C)nc3C)cs2)cc1,,"inconclusive: 1.64 µM [cytotoxic, partial curve, poor fit]"
CC1Cc2ccccc2N1C(=O)COC(=O)Cn1nnc(-c2ccccc2)n1 (centres undefined),,"inconclusive: 29.1 µM [rising, partial curve, poor fit]"
